# According to PubChem BioAssay AID248 (DTP/NCI, 2004):
# The list is a part of this screen's results and no random one: it gathers tests that were run many times, whatever their T/C, doses with no T/C, and many T/C values between a quarter and a half above the control. Further doses and runs are listed elsewhere. T/C: endpoint of the treated group in % of that of the vehicle group. Some entries give survivors of the animals treated and no T/C: the source holds a T/C of zero for them, seemingly a mark for toxic or unscored doses. Some survivor counts are full or nearly so, which does not show that the dose was tolerated: survival well below the control is almost never listed, so the zero probably covers shortened survival too. Counts of survivors are from the toxicity check (mostly the fifth day) where no day follows; animals may have died later. Schedules are NCI's codes, read here as Q, the interval in days (D) or hours (H), X, the number of doses. Some schedule codes hold Z or #, which are not explained here. Where survival is the endpoint, the PubChem record calls one and a half times the control and up active, and a quarter to a half above the control has no call in these data; cut-offs in other NCI protocols can differ. Some T/C values are followed by the survivors on the day toxicity was checked, most often the fifth; without a count, all were alive then.
# System: L1210 leukemia ip in BDF1 mice, survival T/C
# Test: NCI In Vivo Anticancer Drug Screen. Data for tumor model L1210 Leukemia (intraperitoneal) in B6D2F1 (BDF1) mice
# Settings: T/C endpoint: mean survival time, higher T/C = longer survival
# [1] = dose: 200.0 mg/kg/injection, schedule: Q01DX009 (ip), vehicle: Klucel (hydroxypropylcellulose) (HPC)
# [2] = dose: 400.0 mg/kg/injection, schedule: Q01DX009 (ip), vehicle: saline
# [3] = dose: 200.0 mg/kg/injection, schedule: Q04DX003 (ip), vehicle: saline with Tween-80
# [4] = dose: 400.0 mg/kg/injection, schedule: Q04DX003 (ip), vehicle: saline with Tween-80
# [5] = dose: 200.0 mg/kg/injection, schedule: Q01DX009 (ip), vehicle: saline
structure (smiles),measurement,setting,value
CCOC(=O)CN1C(=O)C(Cl)=C(Cl)C1=O,survivor count,"dose: 35.0 mg/kg/injection, schedule: Q01DX009 (ip), vehicle: other",0 of 6
same,survivor count,"dose: 55.0 mg/kg/injection, schedule: Q01DX009 (ip), vehicle: other",0 of 6
same,survivor count,"dose: 80.0 mg/kg/injection, schedule: Q01DX009 (ip), vehicle: other",0 of 6
same,survivor count,"dose: 100.0 mg/kg/injection, schedule: Q04DX003 (ip), vehicle: acetone",0 of 6
same,survivor count,"dose: 200.0 mg/kg/injection, schedule: Q04DX003 (ip), vehicle: acetone",0 of 6
same,survivor count,"dose: 400.0 mg/kg/injection, schedule: Q04DX003 (ip), vehicle: acetone",0 of 6
O=C(O)Cc1ccc2c(c1)OCO2.[Ag],survivor count,"dose: 75.0 mg/kg/injection, schedule: Q01DX001 (ip), vehicle: steroid suspending solution",0 of 6
same,survivor count,"dose: 150.0 mg/kg/injection, schedule: Q01DX001 (ip), vehicle: steroid suspending solution",0 of 6
same,survivor count,"dose: 300.0 mg/kg/injection, schedule: Q01DX001 (ip), vehicle: steroid suspending solution",0 of 6
CCOC(=O)c1[nH]cnc1/N=N/N(C)CCO,T/C,"dose: 100.0 mg/kg/injection, schedule: Q01DX009 (ip), vehicle: Klucel (hydroxypropylcellulose) (HPC)",136 % of control
same,T/C,"dose: 115.0 mg/kg/injection, schedule: Q01DX009 (ip), vehicle: saline",145 % of control
same,T/C,"dose: 180.0 mg/kg/injection, schedule: Q01DX009 (ip), vehicle: Klucel (hydroxypropylcellulose) (HPC)",131 % of control
same,T/C,"dose: 187.0 mg/kg/injection, schedule: Q01DX009 (ip), vehicle: carboxymethylcellulose (CMC)",129 % of control
same,T/C,[1],128 % of control
same,T/C,"dose: 264.0 mg/kg/injection, schedule: Q01DX009 (ip), vehicle: saline",135 % of control
same,T/C,"dose: 266.0 mg/kg/injection, schedule: Q01DX009 (ip), vehicle: carboxymethylcellulose (CMC)",136 % of control
same,T/C,"dose: 360.0 mg/kg/injection, schedule: Q01DX009 (ip), vehicle: Klucel (hydroxypropylcellulose) (HPC)",130 % of control
same,T/C,"dose: 400.0 mg/kg/injection, schedule: Q01DX009 (ip), vehicle: carboxymethylcellulose (CMC)",137 % of control
same,T/C,[2],147 % of control [5 of 6 alive]
same,T/C,"dose: 400.0 mg/kg/injection, schedule: Q04DX003 (ip), vehicle: Klucel (hydroxypropylcellulose) (HPC)",125 % of control
same,T/C,"dose: 600.0 mg/kg/injection, schedule: Q01DX009 (ip), vehicle: carboxymethylcellulose (CMC)",129 % of control
O=c1cc2ccccc2c(O)[nH]1,survivor count,"dose: 200.0 mg/kg/injection, schedule: Q01DX001 (ip), vehicle: Klucel (hydroxypropylcellulose) (HPC)",1 of 6
same,survivor count,"dose: 400.0 mg/kg/injection, schedule: Q01DX001 (ip), vehicle: Klucel (hydroxypropylcellulose) (HPC)",1 of 6
COc1cccc(NC(=O)Nc2cccc(Cl)c2)c1,survivor count,[1],1 of 6
COc1cccc2c1C(=O)CC2,survivor count,[3],3 of 6
same,survivor count,[4],0 of 6
CC(C)C[CH2][Pb]([Cl])([CH2]CC(C)C)[CH2]CC(C)C,survivor count,"dose: 0.1 mg/kg/injection, schedule: Q04DX002 (ip), vehicle: other",3 of 3
same,survivor count,"dose: 0.4 mg/kg/injection, schedule: Q04DX002 (ip), vehicle: other",3 of 3
same,survivor count,"dose: 0.4 mg/kg/injection, schedule: Q04DX003 (ip), vehicle: other",2 of 6
same,survivor count,"dose: 0.8 mg/kg/injection, schedule: Q04DX003 (ip), vehicle: other",0 of 6
same,survivor count,"dose: 1.56 mg/kg/injection, schedule: Q04DX003 (ip), vehicle: other",2 of 6
same,survivor count,"dose: 3.13 mg/kg/injection, schedule: Q04DX003 (ip), vehicle: other",1 of 6
same,survivor count,"dose: 6.25 mg/kg/injection, schedule: Q04DX003 (ip), vehicle: other",0 of 6
same,survivor count,"dose: 12.5 mg/kg/injection, schedule: Q04DX003 (ip), vehicle: other",0 of 6
same,survivor count,"dose: 25.0 mg/kg/injection, schedule: Q04DX003 (ip), vehicle: other",0 of 6
O=C(O)c1cc([N+](=O)[O-])cc(P(=O)(O)O)c1,survivor count,"dose: 100.0 mg/kg/injection, schedule: Q01DX001 (ip), vehicle: saline",6 of 6
same,survivor count,"dose: 200.0 mg/kg/injection, schedule: Q01DX001 (ip), vehicle: saline",6 of 6
same,survivor count,"dose: 400.0 mg/kg/injection, schedule: Q01DX001 (ip), vehicle: saline",6 of 6
CC1CNC(c2ccc(NC(=O)Nc3cc(C(=O)Nc4ccc(C5=NC(C)CN5)cc4)ccc3C(=O)Nc3ccc(C4=NC(C)CN4)cc3)cc2)=N1 (stereo unspecified),survivor count,"dose: 15.0 mg/kg/injection, schedule: Q01DX Z (ip), vehicle: saline",4 of 6
same,survivor count,"dose: 30.0 mg/kg/injection, schedule: Q01DX Z (ip), vehicle: saline",0 of 6
same,survivor count,"dose: 60.0 mg/kg/injection, schedule: Q01DX Z (ip), vehicle: saline",0 of 6
same,survivor count,"dose: 120.0 mg/kg/injection, schedule: Q01DX Z (ip), vehicle: saline",0 of 6
CCN(CC)C(=O)Nc1cccc(OC(=O)N(C)C)c1,survivor count,"dose: 400.0 mg/kg/injection, schedule: Q01DX009 (ip), vehicle: saline with Tween-80",6 of 6
C=CCN(C#N)CC=C,survivor count,"dose: 100.0 mg/kg/injection, schedule: Q01DX009 (ip), vehicle: saline",0 of 6
same,survivor count,"dose: 100.0 mg/kg/injection, schedule: Q04DX003 (ip), vehicle: saline",0 of 6
same,survivor count,[5],0 of 6
same,survivor count,"dose: 200.0 mg/kg/injection, schedule: Q04DX003 (ip), vehicle: saline",0 of 6
same,survivor count,[2],0 of 6
same,survivor count,"dose: 400.0 mg/kg/injection, schedule: Q04DX003 (ip), vehicle: saline",0 of 6
C=CCN(C=O)CC=C,survivor count,[5],4 of 6
same,survivor count,[2],0 of 6
CCCCCCC(C)N(CC)CCOC(=O)c1ccc(N)cc1 (stereo unspecified),survivor count,"dose: 300.0 mg/kg/injection, schedule: Q01DX001 (ip), vehicle: other",2 of 6
S=C(NCCNC(=S)[S][Sn]([c]1ccccc1)([c]1ccccc1)[c]1ccccc1)[S][Sn]([c]1ccccc1)([c]1ccccc1)[c]1ccccc1,survivor count,"dose: 100.0 mg/kg/injection, schedule: Q01DX009 (ip), vehicle: saline with Tween-80",0 of 6
same,survivor count,"dose: 128.0 mg/kg/injection, schedule: Q01DX015 (ip), vehicle: carboxymethylcellulose (CMC)",3 of 6
same,survivor count,[3],2 of 6
same,survivor count,[4],0 of 6
